{"sequences": {"note": "By UniProt entry, the sequences of proteins in these tests, tags left out. Where a name states a change or a piece, a line headed by the entry shows the natural chain unless it says otherwise.", "UniProt Q5TH69": "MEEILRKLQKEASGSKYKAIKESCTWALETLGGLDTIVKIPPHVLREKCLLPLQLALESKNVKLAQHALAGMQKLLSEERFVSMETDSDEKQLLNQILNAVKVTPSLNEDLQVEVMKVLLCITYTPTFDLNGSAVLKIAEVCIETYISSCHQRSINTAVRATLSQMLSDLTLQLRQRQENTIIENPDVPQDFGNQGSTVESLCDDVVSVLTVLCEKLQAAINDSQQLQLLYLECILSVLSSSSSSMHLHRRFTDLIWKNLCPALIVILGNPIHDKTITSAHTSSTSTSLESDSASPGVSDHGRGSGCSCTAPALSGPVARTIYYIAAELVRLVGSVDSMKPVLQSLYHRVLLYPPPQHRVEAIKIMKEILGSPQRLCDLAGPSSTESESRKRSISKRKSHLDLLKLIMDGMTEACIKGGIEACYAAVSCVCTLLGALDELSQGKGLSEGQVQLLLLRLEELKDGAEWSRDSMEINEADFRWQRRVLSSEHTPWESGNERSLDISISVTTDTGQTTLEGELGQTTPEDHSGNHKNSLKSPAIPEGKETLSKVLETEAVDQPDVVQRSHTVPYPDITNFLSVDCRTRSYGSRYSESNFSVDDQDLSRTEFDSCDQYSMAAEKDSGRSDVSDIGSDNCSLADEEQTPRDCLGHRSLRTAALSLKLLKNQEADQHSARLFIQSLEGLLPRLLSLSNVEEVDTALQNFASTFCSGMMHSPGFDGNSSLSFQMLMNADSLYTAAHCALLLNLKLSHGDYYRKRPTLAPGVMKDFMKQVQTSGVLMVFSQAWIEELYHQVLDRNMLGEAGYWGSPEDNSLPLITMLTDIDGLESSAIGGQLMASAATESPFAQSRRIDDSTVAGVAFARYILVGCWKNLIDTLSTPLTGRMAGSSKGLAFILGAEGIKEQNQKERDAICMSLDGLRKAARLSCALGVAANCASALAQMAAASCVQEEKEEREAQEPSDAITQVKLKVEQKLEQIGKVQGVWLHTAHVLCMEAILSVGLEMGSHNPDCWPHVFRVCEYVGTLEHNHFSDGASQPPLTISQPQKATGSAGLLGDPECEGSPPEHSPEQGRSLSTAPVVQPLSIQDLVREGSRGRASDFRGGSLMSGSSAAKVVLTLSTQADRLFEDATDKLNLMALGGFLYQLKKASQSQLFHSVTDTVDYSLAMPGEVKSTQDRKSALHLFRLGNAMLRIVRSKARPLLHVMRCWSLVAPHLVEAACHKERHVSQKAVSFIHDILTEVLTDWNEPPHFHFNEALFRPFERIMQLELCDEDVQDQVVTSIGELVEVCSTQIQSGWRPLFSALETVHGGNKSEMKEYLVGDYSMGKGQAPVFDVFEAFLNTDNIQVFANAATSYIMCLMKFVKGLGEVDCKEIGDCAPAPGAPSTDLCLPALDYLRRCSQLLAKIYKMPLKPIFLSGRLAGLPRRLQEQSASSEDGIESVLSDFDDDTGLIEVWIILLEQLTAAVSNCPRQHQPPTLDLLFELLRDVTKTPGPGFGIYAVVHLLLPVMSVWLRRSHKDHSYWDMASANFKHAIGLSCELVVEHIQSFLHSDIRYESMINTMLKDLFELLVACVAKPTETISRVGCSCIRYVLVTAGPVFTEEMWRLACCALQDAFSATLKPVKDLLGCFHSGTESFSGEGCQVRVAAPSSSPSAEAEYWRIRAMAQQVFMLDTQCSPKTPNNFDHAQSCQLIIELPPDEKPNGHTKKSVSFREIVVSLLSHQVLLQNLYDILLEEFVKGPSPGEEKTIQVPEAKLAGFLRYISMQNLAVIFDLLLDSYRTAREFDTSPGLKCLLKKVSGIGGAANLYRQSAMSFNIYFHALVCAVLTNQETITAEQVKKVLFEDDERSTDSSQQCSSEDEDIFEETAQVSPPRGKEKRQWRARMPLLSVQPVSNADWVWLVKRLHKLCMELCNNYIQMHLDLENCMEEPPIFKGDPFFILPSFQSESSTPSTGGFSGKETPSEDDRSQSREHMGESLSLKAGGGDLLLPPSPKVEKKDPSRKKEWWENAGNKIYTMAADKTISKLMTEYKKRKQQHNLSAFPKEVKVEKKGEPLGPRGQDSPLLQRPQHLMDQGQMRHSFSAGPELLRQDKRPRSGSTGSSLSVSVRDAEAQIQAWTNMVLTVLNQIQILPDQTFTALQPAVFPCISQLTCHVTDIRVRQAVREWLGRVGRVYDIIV", "UniProt Q15345": "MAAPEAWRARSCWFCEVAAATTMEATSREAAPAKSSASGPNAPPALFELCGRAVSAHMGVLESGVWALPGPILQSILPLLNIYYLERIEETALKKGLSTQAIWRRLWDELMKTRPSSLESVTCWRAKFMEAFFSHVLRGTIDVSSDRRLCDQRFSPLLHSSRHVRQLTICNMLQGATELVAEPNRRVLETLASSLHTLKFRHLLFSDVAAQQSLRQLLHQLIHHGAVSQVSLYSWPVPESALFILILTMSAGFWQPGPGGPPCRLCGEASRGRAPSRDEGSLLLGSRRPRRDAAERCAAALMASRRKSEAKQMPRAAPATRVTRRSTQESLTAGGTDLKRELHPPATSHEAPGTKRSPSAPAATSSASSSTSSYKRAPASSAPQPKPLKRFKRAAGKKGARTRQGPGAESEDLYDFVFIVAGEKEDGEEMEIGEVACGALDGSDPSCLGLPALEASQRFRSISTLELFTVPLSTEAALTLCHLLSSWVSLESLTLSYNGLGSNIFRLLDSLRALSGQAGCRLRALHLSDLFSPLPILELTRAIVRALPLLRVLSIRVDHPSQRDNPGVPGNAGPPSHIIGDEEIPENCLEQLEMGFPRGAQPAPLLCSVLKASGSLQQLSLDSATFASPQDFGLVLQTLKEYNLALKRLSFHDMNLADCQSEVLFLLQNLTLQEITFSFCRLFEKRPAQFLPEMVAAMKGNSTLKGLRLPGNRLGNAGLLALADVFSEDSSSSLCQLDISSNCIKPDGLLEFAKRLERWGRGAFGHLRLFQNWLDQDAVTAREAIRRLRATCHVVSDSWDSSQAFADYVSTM", "UniProt Q96II8": "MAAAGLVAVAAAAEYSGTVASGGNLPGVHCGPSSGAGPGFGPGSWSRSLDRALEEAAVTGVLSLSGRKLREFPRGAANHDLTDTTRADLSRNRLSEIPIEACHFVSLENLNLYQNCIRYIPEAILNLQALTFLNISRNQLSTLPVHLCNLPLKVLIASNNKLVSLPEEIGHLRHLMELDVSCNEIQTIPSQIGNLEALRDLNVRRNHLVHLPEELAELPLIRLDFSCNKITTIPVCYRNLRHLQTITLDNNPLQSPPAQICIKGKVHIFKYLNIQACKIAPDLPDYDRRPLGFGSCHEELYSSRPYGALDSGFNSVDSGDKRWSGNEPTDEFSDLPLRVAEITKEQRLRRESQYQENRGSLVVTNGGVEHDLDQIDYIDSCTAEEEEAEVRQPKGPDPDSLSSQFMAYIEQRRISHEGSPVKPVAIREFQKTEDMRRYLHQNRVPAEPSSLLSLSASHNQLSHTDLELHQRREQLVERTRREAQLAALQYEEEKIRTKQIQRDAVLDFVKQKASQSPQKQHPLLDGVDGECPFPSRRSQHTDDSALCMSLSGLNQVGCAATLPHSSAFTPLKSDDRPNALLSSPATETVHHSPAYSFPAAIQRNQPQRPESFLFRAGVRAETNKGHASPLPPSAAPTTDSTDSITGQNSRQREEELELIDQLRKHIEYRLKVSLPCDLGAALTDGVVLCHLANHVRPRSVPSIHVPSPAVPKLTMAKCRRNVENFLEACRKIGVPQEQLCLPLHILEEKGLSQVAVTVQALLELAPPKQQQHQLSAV", "UniProt Q7L5N7": "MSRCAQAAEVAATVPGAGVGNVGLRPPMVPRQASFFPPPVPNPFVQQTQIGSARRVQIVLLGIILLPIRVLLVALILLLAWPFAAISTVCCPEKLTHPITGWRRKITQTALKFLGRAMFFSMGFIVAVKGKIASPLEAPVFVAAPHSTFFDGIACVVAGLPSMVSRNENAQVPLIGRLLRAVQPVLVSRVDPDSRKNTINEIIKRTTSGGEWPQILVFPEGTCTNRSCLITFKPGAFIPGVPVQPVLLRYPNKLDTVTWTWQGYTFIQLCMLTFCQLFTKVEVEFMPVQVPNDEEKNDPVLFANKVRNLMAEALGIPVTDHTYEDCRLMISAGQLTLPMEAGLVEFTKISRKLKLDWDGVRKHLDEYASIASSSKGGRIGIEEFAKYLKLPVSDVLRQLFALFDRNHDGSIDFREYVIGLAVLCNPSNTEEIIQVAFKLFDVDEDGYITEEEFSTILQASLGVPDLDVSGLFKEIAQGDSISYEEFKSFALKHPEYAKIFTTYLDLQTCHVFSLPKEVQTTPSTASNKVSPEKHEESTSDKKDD", "UniProt Q8N653": "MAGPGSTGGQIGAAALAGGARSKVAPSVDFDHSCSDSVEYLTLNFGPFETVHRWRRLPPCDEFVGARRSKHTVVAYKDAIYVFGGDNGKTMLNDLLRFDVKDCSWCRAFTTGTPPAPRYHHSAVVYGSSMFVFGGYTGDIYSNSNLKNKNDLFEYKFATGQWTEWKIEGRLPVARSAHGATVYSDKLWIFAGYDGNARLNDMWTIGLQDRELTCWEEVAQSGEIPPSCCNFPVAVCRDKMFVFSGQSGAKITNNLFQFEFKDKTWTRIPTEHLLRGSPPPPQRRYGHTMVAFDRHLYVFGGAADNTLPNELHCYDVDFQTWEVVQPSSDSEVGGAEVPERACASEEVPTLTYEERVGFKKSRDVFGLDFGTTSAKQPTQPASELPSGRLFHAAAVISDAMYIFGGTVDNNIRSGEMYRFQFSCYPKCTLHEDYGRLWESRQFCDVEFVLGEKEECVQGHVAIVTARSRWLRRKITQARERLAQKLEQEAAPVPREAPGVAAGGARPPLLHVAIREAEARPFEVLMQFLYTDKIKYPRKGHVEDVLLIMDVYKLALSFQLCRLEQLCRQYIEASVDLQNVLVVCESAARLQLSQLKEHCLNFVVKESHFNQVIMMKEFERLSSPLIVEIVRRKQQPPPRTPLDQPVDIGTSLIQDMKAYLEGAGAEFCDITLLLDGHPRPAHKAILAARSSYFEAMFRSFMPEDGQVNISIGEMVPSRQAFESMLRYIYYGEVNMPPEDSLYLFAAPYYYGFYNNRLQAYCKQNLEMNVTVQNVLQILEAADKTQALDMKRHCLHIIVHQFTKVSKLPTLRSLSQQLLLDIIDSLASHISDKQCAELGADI", "UniProt O94927": "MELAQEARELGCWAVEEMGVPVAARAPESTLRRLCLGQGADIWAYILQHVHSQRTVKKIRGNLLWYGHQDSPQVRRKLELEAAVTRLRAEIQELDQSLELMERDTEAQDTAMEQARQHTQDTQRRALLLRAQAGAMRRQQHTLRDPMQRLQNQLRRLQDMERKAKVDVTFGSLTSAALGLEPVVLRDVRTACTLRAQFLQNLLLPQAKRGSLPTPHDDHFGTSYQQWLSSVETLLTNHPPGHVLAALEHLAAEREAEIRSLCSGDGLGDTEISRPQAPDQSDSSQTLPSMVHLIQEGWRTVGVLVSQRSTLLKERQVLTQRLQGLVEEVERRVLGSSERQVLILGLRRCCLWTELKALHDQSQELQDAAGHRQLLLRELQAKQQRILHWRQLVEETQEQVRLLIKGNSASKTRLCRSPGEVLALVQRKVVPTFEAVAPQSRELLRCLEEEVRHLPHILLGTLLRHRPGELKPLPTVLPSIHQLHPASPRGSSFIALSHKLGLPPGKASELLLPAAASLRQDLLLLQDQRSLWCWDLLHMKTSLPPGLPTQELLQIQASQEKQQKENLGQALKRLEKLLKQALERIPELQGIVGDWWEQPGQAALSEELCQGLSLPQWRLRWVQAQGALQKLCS", "UniProt P02788": "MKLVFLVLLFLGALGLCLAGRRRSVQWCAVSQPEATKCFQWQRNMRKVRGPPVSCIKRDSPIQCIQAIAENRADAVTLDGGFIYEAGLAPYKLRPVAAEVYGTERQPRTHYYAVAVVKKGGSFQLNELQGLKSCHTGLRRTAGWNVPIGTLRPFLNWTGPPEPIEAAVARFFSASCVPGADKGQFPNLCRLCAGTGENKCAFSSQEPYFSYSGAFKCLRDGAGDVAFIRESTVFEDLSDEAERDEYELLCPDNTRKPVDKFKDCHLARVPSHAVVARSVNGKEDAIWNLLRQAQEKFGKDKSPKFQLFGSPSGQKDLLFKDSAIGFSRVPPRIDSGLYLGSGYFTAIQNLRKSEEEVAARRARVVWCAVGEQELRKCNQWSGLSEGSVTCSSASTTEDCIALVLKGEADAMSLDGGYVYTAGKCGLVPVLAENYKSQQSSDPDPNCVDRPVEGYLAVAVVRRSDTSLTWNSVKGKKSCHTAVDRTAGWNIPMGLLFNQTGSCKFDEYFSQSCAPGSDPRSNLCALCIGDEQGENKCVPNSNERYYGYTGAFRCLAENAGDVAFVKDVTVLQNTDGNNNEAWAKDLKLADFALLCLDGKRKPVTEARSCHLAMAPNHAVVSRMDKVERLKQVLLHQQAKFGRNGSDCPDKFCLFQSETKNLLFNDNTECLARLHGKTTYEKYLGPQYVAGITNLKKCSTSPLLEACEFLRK"}, "source": "the supplement of paper PMC7666118", "note": "The list shows a part of the results.", "data": [{"compound": "COc1ccc(Cn2ccc3ccc(C(=O)NO)cc32)cc1", "experiment": "dose-dependent thermal stabilisation call (2D-TPP, DLPTP, 10% FDR) (binary (1 = stabilised)); higher = stabilised by the compound", "conditions": "system: HL-60 intact cells; concentration range 0.04-10 µM", "values": [{"target": "LRRC59 (UniProt Q96AG4)", "dose-dependent thermal stabilisation call": "inactive: 0"}, {"target": "KIAA1244 (UniProt Q5TH69)", "dose-dependent thermal stabilisation call": "inactive: 0"}, {"target": "LTV1 (UniProt Q96GA3)", "dose-dependent thermal stabilisation call": "inactive: 0"}, {"target": "LRRC41 (UniProt Q15345)", "dose-dependent thermal stabilisation call": "inactive: 0"}, {"target": "LRCH3 (UniProt Q96II8)", "dose-dependent thermal stabilisation call": "inactive: 0"}, {"target": "LPCAT2 (UniProt Q7L5N7)", "dose-dependent thermal stabilisation call": "inactive: 0"}, {"target": "LZTR1 (UniProt Q8N653)", "dose-dependent thermal stabilisation call": "inactive: 0"}, {"target": "KIAA0841 (UniProt O94927)", "dose-dependent thermal stabilisation call": "inactive: 0"}, {"target": "LTF (UniProt P02788)", "dose-dependent thermal stabilisation call": "inactive: 0"}, {"target": "LOH12CR1 (UniProt Q969J3)", "dose-dependent thermal stabilisation call": "inactive: 0"}]}]}
